In the supplement of paper PMC6411743:
± gives the standard deviation of the averaged measurements. This is a selection; strong and weak results do not stand in their true shares. Most entries show no effect beyond the scatter of the controls.

The chains behind the UniProt entries cited, without tags or fusion partners. Where a name states a change or a piece, a line headed by the entry shows the natural chain unless it says otherwise.
UniProt Q10589, whole entry: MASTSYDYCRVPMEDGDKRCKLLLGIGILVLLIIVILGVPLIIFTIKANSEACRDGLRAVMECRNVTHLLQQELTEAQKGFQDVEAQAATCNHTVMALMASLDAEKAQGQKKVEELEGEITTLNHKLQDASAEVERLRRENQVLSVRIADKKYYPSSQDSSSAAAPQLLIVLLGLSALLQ
UniProt Q13362, whole entry, looked up: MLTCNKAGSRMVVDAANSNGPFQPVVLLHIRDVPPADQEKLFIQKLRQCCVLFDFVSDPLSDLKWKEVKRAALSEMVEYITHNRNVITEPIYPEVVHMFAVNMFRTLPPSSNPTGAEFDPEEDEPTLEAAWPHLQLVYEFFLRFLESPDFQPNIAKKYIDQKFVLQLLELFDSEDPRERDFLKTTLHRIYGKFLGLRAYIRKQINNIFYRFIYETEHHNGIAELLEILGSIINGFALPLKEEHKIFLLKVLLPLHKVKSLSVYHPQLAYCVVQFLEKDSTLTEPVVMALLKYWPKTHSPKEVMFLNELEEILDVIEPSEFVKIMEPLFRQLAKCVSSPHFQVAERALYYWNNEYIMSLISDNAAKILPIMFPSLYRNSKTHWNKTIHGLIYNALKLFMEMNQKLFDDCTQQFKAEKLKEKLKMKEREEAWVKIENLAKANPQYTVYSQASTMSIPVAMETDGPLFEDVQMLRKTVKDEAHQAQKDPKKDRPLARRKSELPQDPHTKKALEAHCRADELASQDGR
UniProt Q13952: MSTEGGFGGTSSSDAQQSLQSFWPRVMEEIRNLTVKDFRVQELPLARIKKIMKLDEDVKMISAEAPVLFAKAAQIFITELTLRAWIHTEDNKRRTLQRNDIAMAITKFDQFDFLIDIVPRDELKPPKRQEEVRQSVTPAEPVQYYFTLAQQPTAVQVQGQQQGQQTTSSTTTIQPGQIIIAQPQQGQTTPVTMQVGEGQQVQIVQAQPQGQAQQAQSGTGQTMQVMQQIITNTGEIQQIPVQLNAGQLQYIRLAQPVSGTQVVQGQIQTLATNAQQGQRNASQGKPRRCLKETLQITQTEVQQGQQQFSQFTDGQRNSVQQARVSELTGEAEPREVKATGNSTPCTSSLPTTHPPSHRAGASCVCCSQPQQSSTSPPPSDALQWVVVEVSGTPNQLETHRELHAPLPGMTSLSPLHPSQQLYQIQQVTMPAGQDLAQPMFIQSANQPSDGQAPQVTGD
UniProt Q04724: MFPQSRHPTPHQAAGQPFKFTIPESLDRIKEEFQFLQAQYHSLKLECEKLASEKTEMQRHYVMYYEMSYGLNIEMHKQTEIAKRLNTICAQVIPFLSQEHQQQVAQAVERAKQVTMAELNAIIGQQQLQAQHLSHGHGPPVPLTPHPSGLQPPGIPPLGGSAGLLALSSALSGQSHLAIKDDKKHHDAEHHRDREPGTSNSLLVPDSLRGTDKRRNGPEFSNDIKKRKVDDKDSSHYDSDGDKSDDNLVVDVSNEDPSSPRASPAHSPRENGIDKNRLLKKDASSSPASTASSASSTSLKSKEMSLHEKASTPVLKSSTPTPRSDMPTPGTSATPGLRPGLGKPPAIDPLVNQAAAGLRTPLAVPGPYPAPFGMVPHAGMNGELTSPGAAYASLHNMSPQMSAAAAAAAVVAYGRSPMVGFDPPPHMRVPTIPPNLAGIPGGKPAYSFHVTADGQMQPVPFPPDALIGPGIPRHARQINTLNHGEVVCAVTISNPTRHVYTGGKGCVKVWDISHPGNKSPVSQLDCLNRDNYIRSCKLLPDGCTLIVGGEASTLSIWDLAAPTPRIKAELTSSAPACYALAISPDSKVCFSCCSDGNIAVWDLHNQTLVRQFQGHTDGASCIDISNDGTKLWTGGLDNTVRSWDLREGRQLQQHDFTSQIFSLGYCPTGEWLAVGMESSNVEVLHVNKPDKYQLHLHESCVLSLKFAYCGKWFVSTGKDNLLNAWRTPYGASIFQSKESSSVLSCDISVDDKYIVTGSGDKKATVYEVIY
UniProt Q01658: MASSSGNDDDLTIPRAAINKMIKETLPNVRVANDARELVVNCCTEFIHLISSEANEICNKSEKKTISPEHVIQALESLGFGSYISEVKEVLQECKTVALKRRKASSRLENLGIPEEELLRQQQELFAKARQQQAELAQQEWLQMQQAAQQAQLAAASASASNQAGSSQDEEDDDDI
UniProt Q04917: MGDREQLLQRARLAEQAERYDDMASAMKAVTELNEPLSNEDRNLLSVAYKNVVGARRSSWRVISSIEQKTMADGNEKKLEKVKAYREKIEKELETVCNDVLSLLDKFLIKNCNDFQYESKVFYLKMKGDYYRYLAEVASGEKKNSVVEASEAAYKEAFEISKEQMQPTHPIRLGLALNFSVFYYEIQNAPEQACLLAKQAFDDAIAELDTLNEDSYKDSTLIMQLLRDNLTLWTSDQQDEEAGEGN
UniProt Q01804: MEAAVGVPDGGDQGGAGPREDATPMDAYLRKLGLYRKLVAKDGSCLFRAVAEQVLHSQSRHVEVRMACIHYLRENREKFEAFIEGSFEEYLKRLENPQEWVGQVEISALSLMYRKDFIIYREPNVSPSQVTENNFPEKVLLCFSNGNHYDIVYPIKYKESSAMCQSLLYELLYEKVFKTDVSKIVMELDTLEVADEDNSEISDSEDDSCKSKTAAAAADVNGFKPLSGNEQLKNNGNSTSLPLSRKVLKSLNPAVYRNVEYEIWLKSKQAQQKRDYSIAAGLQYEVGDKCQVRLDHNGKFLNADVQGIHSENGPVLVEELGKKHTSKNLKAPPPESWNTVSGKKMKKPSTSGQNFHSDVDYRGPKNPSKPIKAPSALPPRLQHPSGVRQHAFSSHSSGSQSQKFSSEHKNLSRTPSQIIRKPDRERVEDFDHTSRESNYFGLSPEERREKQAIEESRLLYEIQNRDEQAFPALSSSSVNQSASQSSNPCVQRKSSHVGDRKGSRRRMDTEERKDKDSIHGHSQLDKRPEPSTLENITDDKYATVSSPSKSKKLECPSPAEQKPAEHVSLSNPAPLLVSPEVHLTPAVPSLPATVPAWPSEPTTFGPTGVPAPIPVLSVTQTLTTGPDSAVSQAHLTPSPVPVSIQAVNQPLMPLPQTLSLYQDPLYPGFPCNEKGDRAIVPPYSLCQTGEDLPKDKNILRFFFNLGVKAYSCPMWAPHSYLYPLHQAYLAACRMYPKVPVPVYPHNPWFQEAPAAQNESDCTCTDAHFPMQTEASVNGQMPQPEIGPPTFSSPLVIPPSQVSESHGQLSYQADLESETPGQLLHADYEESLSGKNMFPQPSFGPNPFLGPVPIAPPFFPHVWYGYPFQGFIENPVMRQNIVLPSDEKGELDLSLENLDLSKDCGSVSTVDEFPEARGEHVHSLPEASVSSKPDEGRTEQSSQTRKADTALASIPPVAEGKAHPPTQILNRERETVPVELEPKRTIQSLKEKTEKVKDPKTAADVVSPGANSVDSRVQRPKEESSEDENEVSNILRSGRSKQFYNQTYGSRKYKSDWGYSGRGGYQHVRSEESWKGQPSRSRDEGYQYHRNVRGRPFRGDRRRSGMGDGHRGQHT
UniProt Q13011: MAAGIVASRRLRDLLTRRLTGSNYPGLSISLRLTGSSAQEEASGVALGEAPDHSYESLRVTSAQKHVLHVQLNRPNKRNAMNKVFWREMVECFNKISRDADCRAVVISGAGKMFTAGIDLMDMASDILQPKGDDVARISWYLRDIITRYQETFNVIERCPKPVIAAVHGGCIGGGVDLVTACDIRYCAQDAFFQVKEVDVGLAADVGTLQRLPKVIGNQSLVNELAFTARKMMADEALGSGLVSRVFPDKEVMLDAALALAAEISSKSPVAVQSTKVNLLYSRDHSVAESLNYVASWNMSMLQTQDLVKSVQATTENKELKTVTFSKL
UniProt Q04656: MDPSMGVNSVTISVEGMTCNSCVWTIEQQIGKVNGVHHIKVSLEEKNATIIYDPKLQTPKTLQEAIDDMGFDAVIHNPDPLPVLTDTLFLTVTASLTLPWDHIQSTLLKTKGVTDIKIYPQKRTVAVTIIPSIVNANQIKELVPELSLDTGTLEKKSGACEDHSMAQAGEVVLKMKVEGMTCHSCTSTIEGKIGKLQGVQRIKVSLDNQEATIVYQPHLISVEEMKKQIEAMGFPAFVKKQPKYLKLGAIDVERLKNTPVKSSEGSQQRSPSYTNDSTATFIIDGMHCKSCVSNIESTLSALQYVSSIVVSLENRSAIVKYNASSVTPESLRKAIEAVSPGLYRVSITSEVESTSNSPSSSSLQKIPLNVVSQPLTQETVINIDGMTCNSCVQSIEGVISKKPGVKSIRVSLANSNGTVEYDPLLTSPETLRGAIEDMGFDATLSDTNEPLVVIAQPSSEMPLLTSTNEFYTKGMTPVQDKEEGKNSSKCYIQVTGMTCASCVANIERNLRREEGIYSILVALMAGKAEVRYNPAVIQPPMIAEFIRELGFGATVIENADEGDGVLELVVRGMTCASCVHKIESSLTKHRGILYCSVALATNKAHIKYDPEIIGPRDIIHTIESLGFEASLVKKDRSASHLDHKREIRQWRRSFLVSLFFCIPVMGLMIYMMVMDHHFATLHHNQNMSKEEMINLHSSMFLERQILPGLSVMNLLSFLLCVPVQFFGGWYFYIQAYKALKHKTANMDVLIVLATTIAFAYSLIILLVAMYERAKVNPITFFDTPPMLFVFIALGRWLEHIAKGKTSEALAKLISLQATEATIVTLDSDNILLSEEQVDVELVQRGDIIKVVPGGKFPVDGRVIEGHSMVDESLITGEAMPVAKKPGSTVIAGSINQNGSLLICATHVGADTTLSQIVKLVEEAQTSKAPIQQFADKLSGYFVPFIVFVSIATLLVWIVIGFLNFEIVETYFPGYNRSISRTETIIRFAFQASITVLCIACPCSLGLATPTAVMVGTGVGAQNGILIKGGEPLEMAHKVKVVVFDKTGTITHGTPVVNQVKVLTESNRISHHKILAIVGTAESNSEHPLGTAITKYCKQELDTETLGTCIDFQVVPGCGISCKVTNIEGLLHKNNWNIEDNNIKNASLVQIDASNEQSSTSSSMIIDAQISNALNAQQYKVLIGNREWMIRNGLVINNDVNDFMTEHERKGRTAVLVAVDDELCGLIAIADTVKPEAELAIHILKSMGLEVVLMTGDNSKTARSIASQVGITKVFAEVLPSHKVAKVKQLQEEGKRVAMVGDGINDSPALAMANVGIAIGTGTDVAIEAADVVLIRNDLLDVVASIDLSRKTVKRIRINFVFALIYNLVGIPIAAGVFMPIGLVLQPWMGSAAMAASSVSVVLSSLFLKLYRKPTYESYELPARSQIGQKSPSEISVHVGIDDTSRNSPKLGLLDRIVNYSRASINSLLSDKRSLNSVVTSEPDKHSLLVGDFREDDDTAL
UniProt Q09028, whole entry: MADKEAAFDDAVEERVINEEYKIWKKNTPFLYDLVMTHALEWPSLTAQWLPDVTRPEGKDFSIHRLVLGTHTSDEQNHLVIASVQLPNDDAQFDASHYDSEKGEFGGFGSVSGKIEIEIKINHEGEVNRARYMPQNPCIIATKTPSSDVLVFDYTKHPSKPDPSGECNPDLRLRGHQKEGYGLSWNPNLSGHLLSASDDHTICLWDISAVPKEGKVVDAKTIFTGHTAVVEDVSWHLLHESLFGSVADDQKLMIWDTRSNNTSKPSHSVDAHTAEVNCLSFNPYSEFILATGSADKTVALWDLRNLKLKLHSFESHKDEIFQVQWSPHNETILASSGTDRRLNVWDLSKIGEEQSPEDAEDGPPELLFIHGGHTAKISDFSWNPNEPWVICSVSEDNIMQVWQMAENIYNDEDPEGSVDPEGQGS
UniProt Q13287: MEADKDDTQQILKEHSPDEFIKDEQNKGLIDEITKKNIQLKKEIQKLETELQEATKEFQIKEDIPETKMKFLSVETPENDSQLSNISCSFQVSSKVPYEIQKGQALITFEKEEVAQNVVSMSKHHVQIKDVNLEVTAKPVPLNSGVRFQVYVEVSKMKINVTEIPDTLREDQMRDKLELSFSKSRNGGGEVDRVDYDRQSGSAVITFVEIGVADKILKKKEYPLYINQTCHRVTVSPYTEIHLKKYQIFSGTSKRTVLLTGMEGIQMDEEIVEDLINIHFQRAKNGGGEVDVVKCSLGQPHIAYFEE
UniProt Q12874: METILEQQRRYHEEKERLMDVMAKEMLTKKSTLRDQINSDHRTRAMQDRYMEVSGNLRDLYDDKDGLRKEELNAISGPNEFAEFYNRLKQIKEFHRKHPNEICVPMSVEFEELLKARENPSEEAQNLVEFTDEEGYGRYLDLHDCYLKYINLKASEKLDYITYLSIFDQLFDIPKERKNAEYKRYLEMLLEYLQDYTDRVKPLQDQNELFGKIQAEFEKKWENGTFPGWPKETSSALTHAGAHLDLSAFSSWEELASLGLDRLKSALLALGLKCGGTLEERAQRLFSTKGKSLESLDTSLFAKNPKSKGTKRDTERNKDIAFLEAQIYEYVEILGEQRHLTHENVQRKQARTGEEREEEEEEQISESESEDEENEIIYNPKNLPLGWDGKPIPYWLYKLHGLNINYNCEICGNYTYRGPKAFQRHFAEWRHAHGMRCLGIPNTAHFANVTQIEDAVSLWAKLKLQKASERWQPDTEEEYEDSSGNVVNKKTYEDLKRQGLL

Compound: Nc1ncnc2c1ncn2[C@@H]1O[C@H](COP(=O)(O)OP(=O)(O)OP(=O)(O)O)[C@@H](O)[C@H]1O [adenosine triphosphate]
Assay: NP40-soluble protein abundance relative to vehicle (solubility fold change) (ratio); higher = more soluble protein in presence of ATP
Method in brief: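 Jurkat crude lysate prepared with a Dounce homogeniser was treated at eight concentrations spanning 0.1 to 10 mM, 10 min at room temperature then 3 min at 37 °C. Solubilisation with 0.8% NP40 and benzonase and ultracentrifugation preceded TMT labelling of the supernatant for LC-MS/MS. Fold change against the detergent-processed vehicle was determined per replicate from vsn-normalised intensities, across three independent experiments.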

Target	NP40-soluble protein abundance (concentration: 0.1mM)	NP40-soluble protein abundance (concentration: 0.5mM)
ITPK1 (UniProt Q13572)	0.982 ± 0.028	0.929 ± 0.032
DNAJC3 (UniProt Q13217)	1 ± 0.021	1 ± 0.045
UniProt Q13472 and related entries	1.02 ± 0.061	1.01 ± 0.071
ROCK1 (UniProt Q13464)	1.01 ± 0.038	1.02 ± 0.073
EIF3I (UniProt Q13347)	0.979 ± 0.023	1.01 ± 0.031
PPP1R8 (UniProt Q12972)	0.975 ± 0.036	0.969 ± 0.063
ERCC8 (UniProt Q13216)	0.986 ± 0.023	0.99 ± 0.056
UniProt Q13439-4|Q13439-5|Q13439	0.987 ± 0.022	0.998 ± 0.07
CPSF1 (UniProt Q10570)	1.03 ± 0.079	1.16 ± 0.071
UniProt Q06323 and related entries	0.891 ± 0.08	0.863 ± 0.086
RBL2 (UniProt Q08999)	1.03 ± 0.032	1.017 ± 0.0068
CENPE (UniProt Q02224)	0.942 ± 0.055	0.952 ± 0.071
UniProt Q13042 and related entries	1 ± 0.017	1.04 ± 0.034
UniProt Q03188	1.03 ± 0.047	0.997 ± 0.025
PLP2 (UniProt Q04941)	0.898 ± 0.011	0.868 ± 0.032
UniProt Q13363 and related entries	1.01 ± 0.045	1.06 ± 0.081
KEAP1 (UniProt Q14145)	0.95 ± 0.15	0.809 ± 0.077
UniProt Q13595 and related entries	0.935 ± 0.051	1.19 ± 0.14
GOLGA3 (UniProt Q08378)	0.971 ± 0.047	0.978 ± 0.071
UniProt Q10589 and related entries	1.01 ± 0.13	1 ± 0.14
UniProt Q01105-2	0.892 ± 0.079	0.836 ± 0.033
FOXK2 (UniProt Q01167)	0.994 ± 0.041	1 ± 0.042
UniProt Q12800 and related entries	1.06 ± 0.12	1.05 ± 0.09
UniProt Q13561 and related entries	0.97 ± 0.089	0.915 ± 0.034

Target	NP40-soluble protein abundance (concentration: 0.1mM)	NP40-soluble protein abundance (concentration: 0.5mM)
CHAF1B (UniProt Q13112)	1.01 ± 0.027	1.03 ± 0.05
MBTD1 (UniProt Q05BQ5)	1.08 ± 0.18	1.07 ± 0.1
UniProt Q13535 and related entries	0.957 ± 0.056	0.993 ± 0.015
ADAM9 (UniProt Q13443)	0.968 ± 0.031	0.953 ± 0.084
UniProt Q12933-2|Q12933 and related entries	1.07 ± 0.018	1.06 ± 0.067
UniProt Q12802 and related entries	1.02 ± 0.059	1.04 ± 0.059
UniProt Q13370 and related entries	1 ± 0.17	1.04 ± 0.051
UniProt Q06547 and related entries	1 ± 0.017	0.949 ± 0.024
UniProt Q14103-3|Q14103-4|D6RF44	0.987 ± 0.024	0.982 ± 0.025
UniProt Q02535	1.34 ± 0.25	0.89 ± 0.055
UniProt Q13362-2|Q13362-3|Q13362-4|Q13362 and related entries	1.02 ± 0.044	1.01 ± 0.062
UniProt Q14005 and related entries	0.994 ± 0.028	1.01 ± 0.083
HMGCS1 (UniProt Q01581)	0.997 ± 0.056	1.04 ± 0.052
LRP1 (UniProt Q07954)	0.949 ± 0.078	0.966 ± 0.04
UniProt Q01831 and related entries	1.03 ± 0.043	1.01 ± 0.041
NOTCH2 (UniProt Q04721)	1.14 ± 0.12	0.917 ± 0.039
UniProt Q13310 and related entries	1.02 ± 0.015	1.01 ± 0.081
DAG1 (UniProt Q14118)	0.978 ± 0.12	0.938 ± 0.15
MRPL49 (UniProt Q13405)	0.918 ± 0.13	0.961 ± 0.16
ARHGAP1 (UniProt Q07960)	1.04 ± 0.074	1.01 ± 0.057
IDI1 (UniProt Q13907)	0.975 ± 0.022	0.972 ± 0.033
TUBB3 (UniProt Q13509)	1.02 ± 0.084	1.01 ± 0.072
UniProt Q13952 and related entries	0.969 ± 0.045	0.922 ± 0.056
UniProt Q06124-2|Q06124	1.07 ± 0.072	1.05 ± 0.086

Target	NP40-soluble protein abundance (concentration: 0.1mM)	NP40-soluble protein abundance (concentration: 0.5mM)
SPAG1 (UniProt Q07617)	0.988 ± 0.085	0.928 ± 0.034
SLC39A6 (UniProt Q13433)	0.93 ± 0.029	0.867 ± 0.074
EIF2B5 (UniProt Q13144)	1.05 ± 0.026	1 ± 0.014
CKAP5 (UniProt Q14008)	0.982 ± 0.033	1.01 ± 0.043
SNTB2 (UniProt Q13425)	1.05 ± 0.089	1 ± 0.064
SCRN1 (UniProt Q12765)	1.05 ± 0.097	1.06 ± 0.12
UniProt Q13033 and related entries	1.02 ± 0.017	1 ± 0.055
UniProt Q04724 and related entries	1.05 ± 0.045	1.02 ± 0.07
UniProt Q13625 and related entries	0.984 ± 0.025	1.02 ± 0.048
CRYZ (UniProt Q08257)	1.02 ± 0.073	1.03 ± 0.047
UniProt Q13303 and related entries	0.977 ± 0.064	0.979 ± 0.017
UniProt Q13332-2|Q13332-6	1.02 ± 0.041	1.02 ± 0.076
CBX3 (UniProt Q13185)	0.909 ± 0.013	0.939 ± 0.052
UniProt Q06265 and related entries	1.05 ± 0.041	1.03 ± 0.071
NUCB1 (UniProt Q02818)	0.982 ± 0.1	0.996 ± 0.062
SCARB2 (UniProt Q14108)	0.909 ± 0.0099	0.914 ± 0.091
UniProt Q08209 and related entries	1.02 ± 0.05	1 ± 0.055
FHL3 (UniProt Q13643)	1.03 ± 0.059	1.07 ± 0.15
UniProt Q04864-2	1.04 ± 0.025	1.03 ± 0.02
GABPA (UniProt Q06546)	1 ± 0.056	1.01 ± 0.022
HDAC1 (UniProt Q13547)	0.958 ± 0.054	0.989 ± 0.067
CDC20 (UniProt Q12834)	0.965 ± 0.06	1.04 ± 0.029
IFIT5 (UniProt Q13325)	1.02 ± 0.087	1.03 ± 0.12
UniProt Q13740 and related entries	0.952 ± 0.026	0.928 ± 0.051

Look-ups from the entries so far:
Value for SNTB2 (UniProt Q13425) under NP40-soluble protein abundance (concentration: 0.1mM): 1.05 ± 0.089
Value for SCRN1 (UniProt Q12765) under NP40-soluble protein abundance (concentration: 0.1mM): 1.05 ± 0.097
Value for CBX3 (UniProt Q13185) under NP40-soluble protein abundance (concentration: 0.1mM): 0.909 ± 0.013
Value for UniProt Q04724 and related entries under NP40-soluble protein abundance (concentration: 0.1mM): 1.05 ± 0.045
Value for SPAG1 (UniProt Q07617) under NP40-soluble protein abundance (concentration: 0.1mM): 0.988 ± 0.085

(listing goes on)

Target	NP40-soluble protein abundance (concentration: 0.1mM)	NP40-soluble protein abundance (concentration: 0.5mM)
UniProt Q14004 and related entries	0.992 ± 0.014	1.19 ± 0.025
COTL1 (UniProt Q14019)	0.918 ± 0.016	0.89 ± 0.074
REST (UniProt Q13127)	0.992 ± 0.042	1.05 ± 0.033
UniProt Q04727 and related entries	0.993 ± 0.051	0.951 ± 0.072
ACACA (UniProt Q13085)	1.07 ± 0.046	1.04 ± 0.029
DR1 (UniProt Q01658)	0.859 ± 0.22	0.947 ± 0.34
UniProt Q12888 and related entries	0.975 ± 0.011	0.967 ± 0.041
YWHAH (UniProt Q04917)	0.914 ± 0.066	0.848 ± 0.075
UniProt Q07002 and related entries	1.05 ± 0.081	1.19 ± 0.074
UniProt Q04726-3|Q04726-7|H0YKT5 and related entries	1.02 ± 0.038	1.01 ± 0.073
PIN1 (UniProt Q13526)	0.965 ± 0.015	0.929 ± 0.016
NNT (UniProt Q13423)	1.03 ± 0.05	1.03 ± 0.037
UniProt Q13131 and related entries	1.03 ± 0.047	1.04 ± 0.047
UniProt Q13308 and related entries	0.997 ± 0.042	0.9692 ± 0.0067
RNASEL (UniProt Q05823)	1.1 ± 0.015	1.16 ± 0.022
TFAP4 (UniProt Q01664)	0.975 ± 0.077	0.921 ± 0.083
PMPCA (UniProt Q10713)	1.06 ± 0.11	1.05 ± 0.062
EP300 (UniProt Q09472)	1.02 ± 0.035	0.975 ± 0.012
MKRN3 (UniProt Q13064)	1.05 ± 0.029	0.986 ± 0.054
UniProt Q00722 and related entries	1 ± 0.025	0.975 ± 0.044
PLCB3 (UniProt Q01970)	1.01 ± 0.061	1.01 ± 0.013
CKAP4 (UniProt Q07065)	0.973 ± 0.035	0.965 ± 0.016
UniProt Q05932 and related entries	1.07 ± 0.096	1.02 ± 0.099
UniProt Q13043	1.02 ± 0.028	1.03 ± 0.071

Target	NP40-soluble protein abundance (concentration: 0.1mM)	NP40-soluble protein abundance (concentration: 0.5mM)
UniProt Q12824	1.05 ± 0.032	1.11 ± 0.05
VAC14 (UniProt Q08AM6)	1.02 ± 0.031	1.04 ± 0.02
TMED1 (UniProt Q13445)	0.991 ± 0.04	1.06 ± 0.078
UniProt Q01968 and related entries	1.02 ± 0.084	1.01 ± 0.014
UniProt Q13422 and related entries	0.98 ± 0.032	1.02 ± 0.052
PWP1 (UniProt Q13610)	0.99 ± 0.021	0.9732 ± 0.0044
UNC119 (UniProt Q13432)	1.03 ± 0.07	1.01 ± 0.065
OTUD4 (UniProt Q01804)	1.04 ± 0.054	1.01 ± 0.035
GALNT1 (UniProt Q10472)	1 ± 0.028	1.09 ± 0.023
ECH1 (UniProt Q13011)	1 ± 0.055	1.02 ± 0.044
ACY1 (UniProt Q03154)	1.05 ± 0.091	1.04 ± 0.075
IQGAP2 (UniProt Q13576)	1.04 ± 0.052	1.08 ± 0.049
CSTF3 (UniProt Q12996)	1.027 ± 0.006	1.06 ± 0.043
PSMD2 (UniProt Q13200)	0.98 ± 0.04	0.956 ± 0.033
UniProt Q02750	0.989 ± 0.02	1.02 ± 0.036
UniProt Q04656 and related entries	1.08 ± 0.14	0.944 ± 0.047
UniProt Q09028-2|Q09028-3|Q09028	1.01 ± 0.042	1.08 ± 0.051
TARDBP (UniProt Q13148)	0.982 ± 0.037	1.03 ± 0.033
NMI (UniProt Q13287)	1 ± 0.056	1.03 ± 0.054
UniProt Q13242	0.984 ± 0.093	1.09 ± 0.073
RING1 (UniProt Q06587)	0.972 ± 0.04	0.998 ± 0.012
SF3A3 (UniProt Q12874)	1.05 ± 0.011	1.13 ± 0.059
GNL2 (UniProt Q13823)	0.974 ± 0.026	1.07 ± 0.052
UniProt Q01085 and related entries	1.04 ± 0.044	1.02 ± 0.072
